Laboratory results from article PMC8498917.
For at least one entry, the source does not settle the construct or the ends of the probe. Weaker means in comparison with the reference protein, sequence or condition of that experiment.

By UniProt entry, the sequences of proteins in these tests, tags left out. Where a name states a change or a piece, a line headed by the entry shows the natural chain unless it says otherwise.
UniProt P17028: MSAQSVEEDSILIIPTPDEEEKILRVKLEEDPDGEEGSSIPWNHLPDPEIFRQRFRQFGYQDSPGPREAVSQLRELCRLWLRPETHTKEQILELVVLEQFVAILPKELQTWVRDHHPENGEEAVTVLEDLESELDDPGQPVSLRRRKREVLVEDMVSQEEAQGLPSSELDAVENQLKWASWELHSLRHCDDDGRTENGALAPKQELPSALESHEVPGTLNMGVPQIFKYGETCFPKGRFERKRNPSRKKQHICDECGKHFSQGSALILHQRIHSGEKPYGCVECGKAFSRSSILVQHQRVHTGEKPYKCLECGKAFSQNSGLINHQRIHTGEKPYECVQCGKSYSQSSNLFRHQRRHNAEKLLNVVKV

Tests used:
ZSCAN21 = assay: EMSA; details: 30 pmol protein, 3 pmol DNA, EMSA: 100 mM Tris-HCl pH 7.5, 7.5 mM KCl, 25 mM MgCl2, 375 mM NaCl, 12.5% glycerol, 5 mM DTT, 30 C, 6% gel, 4 C, recombinant protein, label: Cy3
ZNF24 = ZNF24 (UniProt P17028); assay: EMSA; details: 30 pmol protein, 3 pmol DNA, EMSA: 100 mM Tris-HCl pH 7.5, 7.5 mM KCl, 25 mM MgCl2, 375 mM NaCl, 12.5% glycerol, 5 mM DTT, 30 C, 6% gel, 4 C, recombinant protein, label: Cy3
[1] = strongest shift, 5fC replacing C, exact positions and strand(s) not stated

Sequence: AAGTACCAAGTACCAAGTACCAAGTACCAAGTACC (double strand) [5hmC-(AAGTACC)5]
- binding result (ZSCAN21; shift seen, 5hmC replacing C, exact positions and strand(s) not stated): binds more weakly

Sequence: TCATTCATTCATTCATTCAT (double strand) [5mC-(TCAT)5]
- binding result (ZNF24; 5mC replacing C, exact positions and strand(s) not stated): binds more weakly

Sequence: TCATTCATTCATTCATTCAT (double strand) [5fC-(TCAT)5]
- binding result (ZNF24; [1]): binds

Sequence: TCATTCATTCATTCATTCAT (double strand) [5hmC-(TCAT)5]
- binding result (ZNF24; 5hmC replacing C, exact positions and strand(s) not stated): binds more weakly

Sequence: AAGTACCAAGTACCAAGTACCAAGTACCAAGTACC (double strand) [5C-(AAGTACC)5]
- binding result (ZSCAN21; shift seen): binds more weakly

Sequence: TCATTCATTCATTCATTCAT (double strand) [5C-(TCAT)5]
- binding result (ZNF24): binds more weakly

Sequence: AAGTACCAAGTACCAAGTACCAAGTACCAAGTACC (double strand) [5fC-(AAGTACC)5]
- binding result (ZSCAN21; [1]): binds

Sequence: AAGTACCAAGTACCAAGTACCAAGTACCAAGTACC (double strand) [5mC-(AAGTACC)5]
- binding result (ZSCAN21; shift seen, 5mC replacing C, exact positions and strand(s) not stated): binds more weakly
